# From the supplement of paper PMC12819154, “High-throughput peptide-centric local stability assay extends protein–ligand identification to membrane proteins, tissues and bacteria” (Nature Structural & Molecular Biology, 2025)
# The chains behind the UniProt entries cited, without tags or fusion partners. Where a name states a change or a piece, a line headed by the entry shows the natural chain unless it says otherwise.
# UniProt O55106: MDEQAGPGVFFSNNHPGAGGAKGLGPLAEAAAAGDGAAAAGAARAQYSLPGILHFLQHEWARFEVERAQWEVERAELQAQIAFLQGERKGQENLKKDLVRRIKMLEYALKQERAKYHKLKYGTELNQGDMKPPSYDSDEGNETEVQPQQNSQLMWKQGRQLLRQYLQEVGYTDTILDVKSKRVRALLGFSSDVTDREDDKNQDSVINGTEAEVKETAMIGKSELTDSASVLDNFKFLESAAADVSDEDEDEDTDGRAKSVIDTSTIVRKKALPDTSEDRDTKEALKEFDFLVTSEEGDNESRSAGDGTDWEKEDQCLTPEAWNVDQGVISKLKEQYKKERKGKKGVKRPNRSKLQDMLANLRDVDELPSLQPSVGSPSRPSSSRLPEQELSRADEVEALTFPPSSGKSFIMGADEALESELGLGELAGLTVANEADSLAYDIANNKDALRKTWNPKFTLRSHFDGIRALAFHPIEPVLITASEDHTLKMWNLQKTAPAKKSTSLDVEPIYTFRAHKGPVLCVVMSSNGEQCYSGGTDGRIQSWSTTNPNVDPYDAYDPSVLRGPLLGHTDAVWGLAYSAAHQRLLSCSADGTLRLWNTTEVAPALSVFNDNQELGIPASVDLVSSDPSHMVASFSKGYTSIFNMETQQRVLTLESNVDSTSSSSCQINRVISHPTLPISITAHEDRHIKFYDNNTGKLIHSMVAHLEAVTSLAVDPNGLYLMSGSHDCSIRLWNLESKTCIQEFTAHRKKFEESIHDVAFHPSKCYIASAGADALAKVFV
# UniProt O88673: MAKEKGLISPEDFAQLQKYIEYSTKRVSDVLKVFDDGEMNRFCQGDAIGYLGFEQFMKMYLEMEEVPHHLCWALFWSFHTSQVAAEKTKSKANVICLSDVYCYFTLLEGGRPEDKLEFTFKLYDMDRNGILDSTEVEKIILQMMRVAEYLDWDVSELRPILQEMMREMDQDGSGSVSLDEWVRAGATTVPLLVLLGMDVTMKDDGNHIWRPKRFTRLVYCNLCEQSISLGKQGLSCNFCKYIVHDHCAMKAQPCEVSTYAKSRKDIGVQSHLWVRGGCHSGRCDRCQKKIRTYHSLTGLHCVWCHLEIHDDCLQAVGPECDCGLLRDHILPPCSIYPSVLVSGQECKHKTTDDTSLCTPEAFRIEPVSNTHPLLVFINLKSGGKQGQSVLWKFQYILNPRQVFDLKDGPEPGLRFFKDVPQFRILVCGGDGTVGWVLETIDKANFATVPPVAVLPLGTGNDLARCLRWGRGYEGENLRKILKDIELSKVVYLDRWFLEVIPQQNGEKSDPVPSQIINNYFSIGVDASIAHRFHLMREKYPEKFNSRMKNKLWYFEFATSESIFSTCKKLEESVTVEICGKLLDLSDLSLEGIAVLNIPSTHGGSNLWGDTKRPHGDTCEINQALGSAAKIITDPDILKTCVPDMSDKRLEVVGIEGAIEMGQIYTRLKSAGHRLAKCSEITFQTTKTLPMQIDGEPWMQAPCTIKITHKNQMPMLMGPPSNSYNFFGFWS
# UniProt O70172: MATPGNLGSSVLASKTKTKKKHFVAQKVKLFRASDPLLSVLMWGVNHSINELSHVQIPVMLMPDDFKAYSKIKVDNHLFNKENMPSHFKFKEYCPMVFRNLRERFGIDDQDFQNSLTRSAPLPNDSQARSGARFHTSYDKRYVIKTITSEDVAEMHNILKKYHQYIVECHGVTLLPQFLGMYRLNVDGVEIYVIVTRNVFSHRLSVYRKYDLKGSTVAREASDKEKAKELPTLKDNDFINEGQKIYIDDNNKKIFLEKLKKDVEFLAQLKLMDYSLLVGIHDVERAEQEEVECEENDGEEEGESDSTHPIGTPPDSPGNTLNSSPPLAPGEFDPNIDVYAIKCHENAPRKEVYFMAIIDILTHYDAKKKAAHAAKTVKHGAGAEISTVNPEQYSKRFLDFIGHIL
# UniProt O55102: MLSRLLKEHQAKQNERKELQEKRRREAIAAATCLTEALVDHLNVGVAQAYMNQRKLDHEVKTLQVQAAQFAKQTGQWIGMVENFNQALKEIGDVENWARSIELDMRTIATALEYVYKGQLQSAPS
# UniProt O70479: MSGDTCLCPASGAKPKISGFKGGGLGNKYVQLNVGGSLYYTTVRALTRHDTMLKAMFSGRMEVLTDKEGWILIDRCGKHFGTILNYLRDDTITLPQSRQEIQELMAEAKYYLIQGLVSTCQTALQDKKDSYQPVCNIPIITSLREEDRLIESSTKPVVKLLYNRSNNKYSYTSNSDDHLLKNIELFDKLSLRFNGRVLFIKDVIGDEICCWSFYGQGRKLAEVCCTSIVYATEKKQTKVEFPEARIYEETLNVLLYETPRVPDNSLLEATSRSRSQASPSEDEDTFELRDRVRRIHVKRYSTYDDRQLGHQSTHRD
# UniProt O55126: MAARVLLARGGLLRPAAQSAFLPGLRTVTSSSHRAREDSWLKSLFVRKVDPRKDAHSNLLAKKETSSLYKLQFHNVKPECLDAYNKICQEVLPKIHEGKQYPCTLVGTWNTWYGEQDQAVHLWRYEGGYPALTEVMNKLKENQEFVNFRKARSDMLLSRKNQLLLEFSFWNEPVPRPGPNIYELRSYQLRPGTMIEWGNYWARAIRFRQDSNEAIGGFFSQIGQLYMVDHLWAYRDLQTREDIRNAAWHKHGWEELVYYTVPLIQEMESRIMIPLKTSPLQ
# UniProt O70458: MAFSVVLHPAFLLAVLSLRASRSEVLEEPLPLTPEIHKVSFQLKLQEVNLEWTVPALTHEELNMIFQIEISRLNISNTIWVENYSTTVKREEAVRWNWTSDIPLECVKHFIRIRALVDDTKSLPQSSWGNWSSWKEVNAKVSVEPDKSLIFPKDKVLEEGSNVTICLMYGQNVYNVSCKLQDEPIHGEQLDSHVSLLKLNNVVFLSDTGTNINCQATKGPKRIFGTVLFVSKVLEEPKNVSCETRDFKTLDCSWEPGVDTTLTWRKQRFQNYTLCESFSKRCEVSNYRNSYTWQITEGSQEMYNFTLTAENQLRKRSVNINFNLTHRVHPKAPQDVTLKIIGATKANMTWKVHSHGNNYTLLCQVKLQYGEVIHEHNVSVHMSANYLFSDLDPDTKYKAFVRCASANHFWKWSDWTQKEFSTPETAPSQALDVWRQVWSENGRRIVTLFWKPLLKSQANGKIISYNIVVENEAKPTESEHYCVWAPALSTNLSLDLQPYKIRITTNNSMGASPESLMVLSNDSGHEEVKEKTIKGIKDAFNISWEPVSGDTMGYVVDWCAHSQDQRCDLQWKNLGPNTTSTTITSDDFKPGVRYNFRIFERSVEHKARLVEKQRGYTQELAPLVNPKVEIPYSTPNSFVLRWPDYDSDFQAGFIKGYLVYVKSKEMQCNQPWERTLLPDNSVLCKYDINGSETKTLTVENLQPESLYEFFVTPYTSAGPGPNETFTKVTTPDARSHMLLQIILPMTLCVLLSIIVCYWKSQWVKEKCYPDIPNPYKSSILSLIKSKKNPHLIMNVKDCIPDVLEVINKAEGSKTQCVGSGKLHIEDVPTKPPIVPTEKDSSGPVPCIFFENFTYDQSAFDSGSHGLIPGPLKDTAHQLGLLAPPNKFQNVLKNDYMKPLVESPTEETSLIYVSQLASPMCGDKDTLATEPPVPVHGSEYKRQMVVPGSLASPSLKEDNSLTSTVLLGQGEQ
# UniProt O35730: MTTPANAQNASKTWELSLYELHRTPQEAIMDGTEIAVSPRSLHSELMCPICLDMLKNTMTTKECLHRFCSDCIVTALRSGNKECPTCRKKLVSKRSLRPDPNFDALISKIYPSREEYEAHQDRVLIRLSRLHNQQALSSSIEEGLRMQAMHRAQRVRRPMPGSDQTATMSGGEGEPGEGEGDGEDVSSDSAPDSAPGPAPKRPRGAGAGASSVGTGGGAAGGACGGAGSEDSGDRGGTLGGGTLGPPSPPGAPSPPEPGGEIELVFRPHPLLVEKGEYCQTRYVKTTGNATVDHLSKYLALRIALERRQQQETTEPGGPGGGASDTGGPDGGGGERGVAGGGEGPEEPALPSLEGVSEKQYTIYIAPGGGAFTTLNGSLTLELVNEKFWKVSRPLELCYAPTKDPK
# This is one part of the list. Most values lie at the level of the controls, where differences are scatter.
# Compound: CN[C@@H]1C[C@H]2O[C@@](C)([C@@H]1OC)n1c3ccccc3c3c4c(c5c6ccccc6n2c5c31)C(=O)NC4 [staurosporine]
# Assay: log2 fold change of tryptic peptide abundance, ligand vs vehicle (limited proteolysis) (log2 ratio); higher = more trypsin-susceptible (destabilized)
# Settings: ligand concentration: 20 uM; sample: mouse liver crude lysate; replicate design: treated separately
row,Target,log2 fold change
1,"UniProt O55106 (peptide sequence: MLEYALKQER, peptide start residue: 104)",0.487
2,"UniProt O88673 (peptide sequence: RPHGDTCEINQALGSAAK, peptide start residue: 612)",-0.396
3,"UniProt O70172 (peptide sequence: CHENAPR, peptide start residue: 343)",0.408
4,"UniProt O55102 (peptide sequence: TLQVQAAQFAK, peptide start residue: 62)",0.262
5,"UniProt O70479 (peptide sequence: RYSTYDDR, peptide start residue: 299)",0.031
6,"UniProt O55126 (peptide sequence: IMIPLKTSPLQ, peptide start residue: 271)",0.256
7,"UniProt O70458 (peptide sequence: LHIEDVPTKPPIVPTEK, peptide start residue: 822)",-0.512
8,"UniProt O35730 (peptide sequence: SGNKECPTCR, peptide start residue: 82)",-1
